Cleaved PARP after 72 h of treatment

Values as published with doi:10.1371/journal.pone.0140310, rounded.

Every entry is a combination with vincristine at 0.0005 µM: CC[C@]1(O)C[C@H]2CN(CCc3c([nH]c4ccccc34)[C@@](C(=O)OC)(c3cc4c(cc3OC)N(C=O)[C@H]3[C@@](O)(C(=O)OC)[C@H](OC(C)=O)[C@]5(CC)C=CCN6CC[C@]43[C@@H]65)C2)C1

Drugs:
LFM-A13 (10 µM): C/C(O)=C(\C#N)C(=O)Nc1cc(Br)ccc1Br
VX-702 (2 µM): NC(=O)c1ccc(N(C(N)=O)c2c(F)cccc2F)nc1-c1ccc(F)cc1F
bortezomib (0.005 µM): CC(C)C[C@H](NC(=O)[C@H](Cc1ccccc1)NC(=O)c1cnccn1)B(O)O
crizotinib (1 µM): C[C@@H](Oc1cc(-c2cnn(C3CCNCC3)c2)cnc1N)c1c(Cl)ccc(F)c1Cl
A-769662 (10 µM): N#Cc1c(O)c2c(-c3ccc(-c4ccccc4O)cc3)csc2[nH]c1=O
lapatinib (4 µM): CS(=O)(=O)CCNCc1ccc(-c2ccc3ncnc(Nc4ccc(OCc5cccc(F)c5)c(Cl)c4)c3c2)o1
lenalidomide (5 µM): Nc1cccc2c1CN(C1CCC(=O)NC1=O)C2=O (centres unmarked)
OSU-03012 (5 µM): NCC(=O)Nc1ccc(-n2nc(C(F)(F)F)cc2-c2ccc3c(ccc4ccccc43)c2)cc1
PF-562271 (0.4 µM): CN(c1ncccc1CNc1nc(Nc2ccc3c(c2)CC(=O)N3)ncc1C(F)(F)F)S(C)(=O)=O
perifosine (2 µM): CCCCCCCCCCCCCCCCCCOP(=O)([O-])OC1CC[N+](C)(C)CC1
T0901317 (7 µM): O=S(=O)(c1ccccc1)N(CC(F)(F)F)c1ccc(C(O)(C(F)(F)F)C(F)(F)F)cc1
GSK650394 (0.8 µM): O=C(O)c1ccc(-c2c[nH]c3ncc(-c4ccccc4)cc23)cc1C1CCCC1
tanespimycin (0.01 µM): C=CCNC1=C2C[C@@H](C)C[C@H](OC)[C@H](O)[C@@H](C)/C=C(\C)[C@H](OC(N)=O)[C@@H](OC)/C=C\C=C(/C)C(=O)NC(=CC1=O)C2=O
fludarabine (1 µM): Nc1nc(F)nc2c1ncn2[C@@H]1O[C@H](CO)[C@@H](O)[C@@H]1O
dasatinib (0.02 µM): Cc1nc(Nc2ncc(C(=O)Nc3c(C)cccc3Cl)s2)cc(N2CCN(CCO)CC2)n1
sorafenib (2 µM): CNC(=O)c1cc(Oc2ccc(NC(=O)Nc3ccc(Cl)c(C(F)(F)F)c3)cc2)ccn1
nilotinib (1 µM): Cc1cn(-c2cc(NC(=O)c3ccc(C)c(Nc4nccc(-c5cccnc5)n4)c3)cc(C(F)(F)F)c2)cn1
tamatinib (2 µM): COc1cc(Nc2ncc(F)c(Nc3ccc4c(n3)NC(=O)C(C)(C)O4)n2)cc(OC)c1OC
selumetinib (0.075 µM): Cn1cnc2c(F)c(Nc3ccc(Br)cc3Cl)c(C(=O)NOCCO)cc21
KU-55933 (5 µM): O=c1cc(-c2cccc3c2Sc2ccccc2S3)oc(N2CCOCC2)c1
CP-690550 (5 µM): C[C@@H]1CCN(C(=O)CC#N)C[C@@H]1N(C)c1ncnc2[nH]ccc12
vismodegib (5 µM): CS(=O)(=O)c1ccc(C(=O)Nc2ccc(Cl)c(-c3ccccn3)c2)c(Cl)c1
XAV939 (10 µM): Oc1nc(-c2ccc(C(F)(F)F)cc2)nc2c1CSCC2
lestaurtinib (0.02 µM): C[C@]12O[C@H](C[C@]1(O)CO)n1c3ccccc3c3c4c(c5c6ccccc6n2c5c31)CNC4=O
Src-I1 (10 µM): COc1cc2ncnc(Nc3ccc(Oc4ccccc4)cc3)c2cc1OC

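The test systems are human melanoma cell lines, treated with two drugs together for 72 h and then stained and imaged. Values are the share of nuclei positive for cleaved PARP as a percentage of the same share in the DMSO control: 100 is the control level, higher means more apoptosis. Concentrations were fixed for each drug; these are the higher of two levels. The file gives one value for each pair and line, without errors, so small differences may be noise. Basal and induced levels differ widely between cell lines.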 Only some of the drugs and lines screened are listed, without regard to their results.

Partner	LOX IMVI	COLO 800	RVH-421	COLO 829
tamatinib	416	496	2030	567
PF-562271	58.0	103	369	171
tanespimycin	238	33.0	165	260
vismodegib	131	544	130	209
VX-702	287	29.6	244	142
dasatinib	319	149	173	254
A-769662	75.5	235	330	533
lapatinib	84.5	202	148	452
T0901317	145	84.4	401	208
GSK650394	108	49.5	155	238
OSU-03012	87.5	105	112	149
selumetinib	61.3	95.0	70.8	155
perifosine	146	85.1	171	99.1
LFM-A13	120	467	276	374
crizotinib	109	55.5	96.6	33.4
sorafenib	56.7	88.1	108	143
lestaurtinib	204	116	62.8	230
KU-55933	175	163	141	204
nilotinib	211	147	148	60.7
bortezomib	267	92.6	571	3000
Src-I1	149	53.5	166	116
fludarabine	55.2	77.8	127	116
CP-690550	183	129	37.5	88.9
lenalidomide	85.4	104	77.4	187
XAV939	169	85.7	130	153

Some entries from above, unchanged:

| Partner | LOX IMVI | COLO 800 | RVH-421 | COLO 829 |
|---|---|---|---|---|
| Src-I1 | 149 | 53.5 | 166 | 116 |
| sorafenib | 56.7 | 88.1 | 108 | 143 |